# Some of the results follow. Shown are side measurements of this screen, not its main read-out; they come without a call. Most of these compounds were active or inconclusive in the main read-out, so they are no random draw. The note in brackets gives the kind of curve behind each potency; many fits are weak.
# Assay: qHTS Assay for Modulators of Lamin A Splicing
# Details: HeLa LMNA splicing GFP/RFP minigene ratio, 48 h
# Summary of the method: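 Read-out is the ratio of GFP to DsRed2 object intensity, acquired by 488 nm laser-scanning cytometry on HeLa lamin A-EGFP minigene reporter cells. Compound incubation 48 hrs at 37 °C in Opti-MEM with 2% FBS; DMSO 0.5% final.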
# [1] = measured here: RFP viability control channel
# [2] = measured here: GFP splicing reporter channel
SMILES,AC50 [1],AC50 [2]
Cc1ccc(-n2nc(C(=O)Nc3ccc(Br)cc3C)c(=O)n(C)c2=O)cc1,"0.00501 µM [falling, full curve]",–
CN(Cc1ccco1)c1nc(-c2ccccc2Cl)nc2ccccc12,"20 µM [rising, single point]","22.4 µM [rising, single point]"
O=C(O)CN1C(c2ccccc2)=Nc2ccc(Br)cc2C1c1ccccc1 (configuration not stated),–,"8.91 µM [falling, partial curve]"
CCOC(=O)c1sc(NC(=O)CSc2nncs2)c(C(=O)OCC)c1C,–,"11.2 µM [rising, partial curve]"
COc1ccccc1N1CCN(S(=O)(=O)CCNC(=O)C2CC(=O)N(c3ccccc3)C2)CC1 (configuration not stated),–,"1 µM [falling, full curve, poor fit]"
COc1cc(N2CCCC2)c(OC)cc1/C=C(/C#N)c1cccc(Br)c1,"31.6 µM [rising, single point]",–
CC(=O)C1=C(c2ccc(Cl)c(Cl)c2)N(C(C)=O)n2cnnc2S1,"17.8 µM [rising, single point]",–
CC(NC(=O)c1cc2ccccc2o1)c1ccccc1 (configuration not stated),"0.02 µM [falling, full curve, poor fit]","0.0178 µM [falling, full curve, poor fit]"
COc1cc(NS(=O)(=O)c2ccc(F)cc2)c(OC)cc1NC(C)=O,–,"5.62 µM [rising, full curve, poor fit]"
CC(=O)S[C@H]1CC2=CC(=O)CC[C@@]2(C)[C@H]2CC[C@@]3(C)[C@H](CC[C@]34CCC(=O)O4)[C@@H]12,–,"5.62 µM [falling, partial curve]"
Cc1cccc(NC(=O)CSc2nc3ccccc3c3nc(CCc4c(C)n[nH]c4C)nn23)c1,"12.6 µM [falling, partial curve]","10 µM [falling, partial curve, poor fit]"
CC(C)CC(=O)N1CCN(S(=O)(=O)c2ccc3ccccc3c2)CC1,"17.8 µM [rising, single point]","5.01 µM [rising, partial curve, poor fit]"
O=C(NNC(=O)c1ccccc1-n1cccc1)c1ccc(F)cc1,–,"0.00447 µM [rising, full curve, poor fit]"
COc1ccccc1-c1cc(C(=O)NCCc2ccccc2)no1,"15.8 µM [rising, single point]",–
Cc1cccc(-c2nsc(SCC(=O)NCc3ccco3)n2)c1,"10 µM [rising, partial curve]",–
O=S(=O)(Nc1cccc(F)c1)c1ccc2[nH]c3c(c2c1)CCCCC3,"35.5 µM [falling, partial curve]","35.5 µM [falling, single point]"
COc1cccc(C(=O)Oc2c(CN3CCOCC3)cc(Cl)c3cccnc23)c1,"15.8 µM [rising, single point]",–
COc1ccc(S(=O)(=O)Nc2cccnc2)c(Cl)c1Cl,"14.1 µM [falling, partial curve, poor fit]",–

SMILES,AC50 [1],AC50 [2]
CCSc1cc(N2CCCC2)nc(-c2cccc(C)c2)n1,"0.447 µM [rising, full curve]","1.41 µM [rising, partial curve]"
CCOC(=O)c1ccc(OCC(=O)c2ccc(O)cc2O)cc1,"35.5 µM [rising, single point]",–
Cc1cccc(NC(=O)C(C)n2cc([N+](=O)[O-])cn2)n1 (configuration not stated),–,"0.00316 µM [rising, full curve, poor fit]"
CC(C)(C)OC(=O)N1CCC(c2c(C(=O)N3CCC(c4ccccc4)C3)cnn2-c2ccc(Cl)cc2)CC1 (configuration not stated),"31.6 µM [rising, single point]",–
O=C(c1ccc2c(c1)OCO2)C1CCCN(Cc2ccc3cccc(F)c3n2)C1 (configuration not stated),"17.8 µM [falling, partial curve, poor fit]",–
COc1ccc(C2C3=C(Nc4ncnn42)c2ccccc2CC3)cc1OC (configuration not stated),"14.1 µM [rising, single point]",–
CC(C)COc1ccc(C(=O)N(Cc2ccco2)C2CCS(=O)(=O)C2)cc1 (configuration not stated),"15.8 µM [rising, single point]","11.2 µM [rising, single point]"
c1nc(NCCN2CCOCC2)c2sc3nc(N4CCOCC4)c4c(c3c2n1)CCC4,"11.2 µM [rising, partial curve, poor fit]",–
CC1CCC(NC(=O)Cn2c3c(c(-c4ccccc4Cl)cc2=O)CCC3)CC1 (configuration not stated),"35.5 µM [rising, single point]",–
O=C(c1cc(-c2cccc(O)c2)on1)N1CCN(C(c2ccccc2)c2ccccc2)CC1,"3.16 µM [falling, partial curve]",–
CCOC(=O)Nc1cc(=O)c2ccccc2o1,"5.62 µM [falling, single point]","6.31 µM [falling, single point]"
C=CCc1ccc(OCCCCOc2ccc(C(=O)O)cc2)c(OC)c1,–,"0.282 µM [rising, partial curve, poor fit]"
Cc1cccc(CCNC(=O)c2ccc3c(c2)nc2n3CCCCC2)c1,–,"0.708 µM [rising, full curve, poor fit]"
CCOCCCNCc1cc(Br)ccc1OCc1ccccc1,"14.1 µM [rising, single point]",–
COc1ccc2nc(NC(=O)CSc3nnnn3C3CCCCC3)sc2c1,"35.5 µM [rising, partial curve, poor fit]","20 µM [rising, partial curve, poor fit]"
CCOC(=O)/C(=C\c1ccc(Cl)cc1)c1nc2sc(C)c(C)c2c(=O)[nH]1,"25.1 µM [falling, single point]","14.1 µM [falling, partial curve, poor fit]"
O=C(NC(NC(=S)Nc1ccc(Cl)cc1)C(Cl)(Cl)Cl)c1ccco1 (configuration not stated),"25.1 µM [rising, single point]","35.5 µM [rising, single point]"
CCOC(=O)N1CCN(c2cc(NCCO)c([N+](=O)[O-])c3nonc23)CC1,–,"0.891 µM [rising, full curve, poor fit]"

# In the list so far, these have a nitro group on carbon:
SMILES,AC50 [1],AC50 [2]
Cc1cccc(NC(=O)C(C)n2cc([N+](=O)[O-])cn2)n1 (configuration not stated),–,"0.00316 µM [rising, full curve, poor fit]"
CCOC(=O)N1CCN(c2cc(NCCO)c([N+](=O)[O-])c3nonc23)CC1,–,"0.891 µM [rising, full curve, poor fit]"

# — PubChem BioAssay AID1487 (National Center for Advancing Translational Sciences (NCATS), 2009)
